We go through 1 substance from article PMC5447718.

By UniProt entry, the sequences of proteins in these tests, tags left out.
UniProt P16388: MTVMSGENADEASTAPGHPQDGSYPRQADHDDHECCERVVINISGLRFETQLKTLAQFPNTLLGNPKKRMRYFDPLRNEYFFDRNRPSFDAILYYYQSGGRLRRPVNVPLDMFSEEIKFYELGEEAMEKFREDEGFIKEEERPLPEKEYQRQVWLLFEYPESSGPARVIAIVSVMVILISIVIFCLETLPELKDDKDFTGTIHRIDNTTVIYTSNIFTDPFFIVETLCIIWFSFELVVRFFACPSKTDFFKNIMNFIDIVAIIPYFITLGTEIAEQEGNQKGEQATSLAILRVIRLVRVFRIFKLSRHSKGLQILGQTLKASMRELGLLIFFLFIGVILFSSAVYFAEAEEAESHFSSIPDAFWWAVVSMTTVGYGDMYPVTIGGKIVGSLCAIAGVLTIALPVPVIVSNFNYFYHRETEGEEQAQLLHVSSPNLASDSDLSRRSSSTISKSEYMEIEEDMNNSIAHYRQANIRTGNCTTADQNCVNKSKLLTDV
UniProt P63141: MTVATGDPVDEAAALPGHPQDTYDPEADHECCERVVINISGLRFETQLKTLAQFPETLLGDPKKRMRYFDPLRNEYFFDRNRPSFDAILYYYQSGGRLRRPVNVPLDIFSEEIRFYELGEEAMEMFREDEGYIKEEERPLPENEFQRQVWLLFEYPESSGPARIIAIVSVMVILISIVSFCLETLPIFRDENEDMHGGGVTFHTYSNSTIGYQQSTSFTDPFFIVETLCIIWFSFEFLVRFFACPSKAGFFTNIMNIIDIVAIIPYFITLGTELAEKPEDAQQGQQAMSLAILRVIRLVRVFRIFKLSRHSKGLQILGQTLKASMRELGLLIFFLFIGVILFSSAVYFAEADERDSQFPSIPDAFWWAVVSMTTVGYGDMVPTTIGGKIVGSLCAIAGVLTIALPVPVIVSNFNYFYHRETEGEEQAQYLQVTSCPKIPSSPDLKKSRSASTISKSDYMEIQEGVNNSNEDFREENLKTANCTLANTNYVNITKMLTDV

This test has as its target voltage-gated potassium channel subunit Kv1.1 (mouse (endogenous in cortical membranes; the methods say rat cortices)) (UniProt P16388). The test is described as follows: co-IP; rabbit anti-Kv1.1 (4 ug) on Protein A/G-agarose from pre-cleared solubilised cortical membranes (1 mg protein; 20 mM HEPES pH 7.2, 150 mM NaCl, 5 mM EDTA, 1% Triton X-100, 0.5% SDS); blot for Kv1.2; rabbit IgG as control; animals treated with DMSO or rapamycin (more Kv1.2 with rapamycin).

These are yes or no findings as the source states them, for the method shown. Binding seen in cells or lysates may run through a third protein. Some binding calls cover weakened binding; strength is not graded here.

As to “voltage-gated potassium channel subunit Kv1.2 (from UniProt P63141 1-499)”, the binding result is listed as “binds”.
